Results are given in words; binding and its absence hold for the method and conditions named. Binding seen in cells or lysates may run through a third protein. Some entries that bind do so weakly or less than the wild type. Sequences can lack the tags named with a protein.
Target: T1, α-COP from yeast extract (yeast) (UniProt P53622)
T1 sequence (looked up): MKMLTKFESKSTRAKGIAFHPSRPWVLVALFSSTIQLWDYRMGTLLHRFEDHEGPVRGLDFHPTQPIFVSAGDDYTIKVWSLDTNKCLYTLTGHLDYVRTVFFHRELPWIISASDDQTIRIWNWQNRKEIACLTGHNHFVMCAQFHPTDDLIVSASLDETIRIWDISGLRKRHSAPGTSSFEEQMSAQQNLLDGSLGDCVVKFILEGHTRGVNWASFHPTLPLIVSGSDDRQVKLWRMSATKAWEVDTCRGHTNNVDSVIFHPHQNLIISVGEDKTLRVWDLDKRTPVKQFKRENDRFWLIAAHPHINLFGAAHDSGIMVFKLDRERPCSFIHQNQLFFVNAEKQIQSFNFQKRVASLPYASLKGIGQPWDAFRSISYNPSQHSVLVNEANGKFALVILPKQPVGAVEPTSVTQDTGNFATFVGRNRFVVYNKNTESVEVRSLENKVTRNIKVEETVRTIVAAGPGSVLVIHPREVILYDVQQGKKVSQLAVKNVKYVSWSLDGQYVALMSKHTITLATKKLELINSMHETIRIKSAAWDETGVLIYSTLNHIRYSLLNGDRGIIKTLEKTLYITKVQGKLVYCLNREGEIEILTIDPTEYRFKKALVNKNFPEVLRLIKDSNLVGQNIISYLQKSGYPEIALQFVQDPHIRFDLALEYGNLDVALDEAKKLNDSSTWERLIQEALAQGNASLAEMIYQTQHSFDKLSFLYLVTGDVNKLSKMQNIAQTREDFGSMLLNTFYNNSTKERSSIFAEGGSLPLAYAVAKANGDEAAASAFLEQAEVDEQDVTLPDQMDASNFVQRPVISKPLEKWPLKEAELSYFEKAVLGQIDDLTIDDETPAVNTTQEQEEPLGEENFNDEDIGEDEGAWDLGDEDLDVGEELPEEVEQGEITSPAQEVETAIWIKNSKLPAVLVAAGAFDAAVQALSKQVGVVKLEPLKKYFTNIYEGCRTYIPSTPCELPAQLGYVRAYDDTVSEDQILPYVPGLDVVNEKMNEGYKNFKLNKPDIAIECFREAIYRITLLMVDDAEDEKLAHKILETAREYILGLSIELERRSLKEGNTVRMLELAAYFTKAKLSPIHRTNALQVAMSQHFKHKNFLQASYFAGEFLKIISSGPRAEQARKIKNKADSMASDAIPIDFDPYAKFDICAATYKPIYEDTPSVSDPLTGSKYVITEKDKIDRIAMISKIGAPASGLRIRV
Test: GST pull-down from yeast extract; the filing takes the retention to be mediated by δ-COP

B1: GST-Dsl1p (protein, S. cerevisiae (yeast), UniProt P53847 1-754, looked up, not shown: a dimerising Fc or GST)
chain: MESLFPNKGEIIRELLKDPLILKNDSKRSNGSELELDSSDLLQREAILANELNILDNLKTFLNLIKEVKTNLNILELENCYYSLQSLRKKMRNNAAYLKQSFNFQQSISTYVDTLHLELVSTLYKILTNGFWKITENSIQFTPTVEWGKDKVHIEYDTFMDFVAQQYFPKGSLDNQAWFILDMTSADSQEQVRAKLNTIMKEYMNLSRIVSMIKNSIFISGKEISYENEKNILVFSKSSSHGQHCVSTVLTSFEAVCDFMLDGLAFRDRKTLSYELGPLFNTEFTKFVKNNASIILESLDSPLKNLVSVINNKLTRLVAKSEVTNWTHSGKEIQDLLMNKQLYYNLLLDKVLESHISEIRSIFEDPKKSWQNLEVVELTTSNTNTMSEKIGKNDSDVQNEKELHNAVSKDDDWNWEVEDDDADAWGDEIDVNIDDEEEKTNQEKEKEPEEEENAWDEAWAIDENIDDASLENGKEHLKAHDVGSLDKDHIEVTQLPKLFLAISQNFKSSFADSHVDEQYFAYKYNLLQTSYMAMCTANFSHNWCQLYVDMRYLIERDEKLYRIKELTRNLLETKLNMKYRIVCQLIRHQLTEFRENERNPSWDATIEKLLPYILKEIVRPLQKIRGEEGSRYLLSFLNFLYNDCVTKEILKWQIISEVNSENLGELVSLLVNNTDIQLLAKEPSYKKMREKFATMGKFLPLHLKEIMEMFYNGDFYLFATDELIQWIELLFADTPLRRNAIDDIYEIRGTALDD
  binding: binds

Reference: patent publication EP1396498A1, “A pair of polypeptides with specific and strong interaction” (Max-Planck-Gesellschaft zur Förderung der Wissenschaften …, priority 2002, dated 2004)
